{
  "source": "patent US4041168A",
  "about": "“Nitroimidazole derivative with antibacterial activity” (Gruppo Lepetit S.p.A., priority 1975, dated 1977)",
  "data": [
    {"system": "Trichomonas vaginalis", "assay": "in vivo activity against experimental infection in mice caused by Trichomonas vaginalis (ED50, Therapeutical Index)", "conditions": "Table 2; 5-hydroxyalkyl minus 5-alkyl compound of the pair", "procedure": "(§1) This activity, expressed as an ED50 value, is moreover coupled with a very low toxicity, expressed as an LD50 value, which was determined substantially according to the method described by Lichtfield and Wilcoxon, Journ. Pharm. Exp. Ther., 96, 99, 1949. In representative experiments, the following results have been obtained:\n(§2) which indicate that the compound of the invention is a very useful and promising anti-Trichomonas agent. This becomes even more evident if one considers its Therapeutical Index (TI). Said parameter, which is mathematically expressed by the following ratio LD50 /ED50 gives a reliable idea about the safety of a drug and, considering how it is calculated, it is clear that the higher the TI, the safer the drug is; a high value of the Therapeutical Index means in fact a low effective dose (ED50) in comparison with the lethal dose (LD50). […] As an example, the 5-isopropyl-1-methyl-2-nitroimidazole, described in U.S. Pat. No. 3,499,967 and therein mentioned as one of the most outstanding in vivo active 2-nitroimidazoles against Trichomonas vaginalis, has a Therapeutical Index of 102.\n(§3) 1. In the present experiment there are compared the anti-Trichomonas in vivo activities and the Therapeutical Indexes (TI) of the compound of the invention (hereinafter referred to as compound A) and four 5-hydroxy alkyl-2-nitroimidazoles described or falling within prior art patents. In these four compounds the hydroxy group is bound to a primary or secondary carbon atom which not necessarily is linked to the imidazole nucleus.\n(§4) 2. In the following set of experiments there are evaluated the variations of Therapeutical Index (positive or negative) which are observed when some 5-alkyl-2 -nitroimidazoles known from the prior art are compared with the corresponding 5-hydroxyalkyl-2-nitroimidazoles, including the new compound A. Obviously all of the compounds are tested for their in vivo activity against Trichomonas vaginalis. […] With reference to the hereinbelow reported table and the first four pair of compounds, the results clearly indicate that the variations of Therapeutical Index which are observed are slightly positive or even negative i.e., that the Therapeutical Index of the known 5-hydroxyalkyl-2-nitroimidazoles either is worse than or is substantially the same as that of the corresponding 5-alkyl compounds: this practically means that no appreciable therapeutical results have been obtained, and that, considering the last pair of substances i.e., compound K and compound A (the compound of the invention), an unrelevant or unfavorable variation of the Therapeutical Index would have to be expected as well. On the contrary, a dramatically favorable and unpredictable variation of this parameter is observed and, clearly, this effect is to be interpreted as a remarkable improvement of the therapeutical (anti-Trichomonas) properties:\n(§5) 3. In the third experiment there are evaluated the effects on the Therapeutical Index of the substitution with two methyl groups of two hydrogen atoms of the methyl radical at the 5-position of compound F namely [drawing 17] in comparison with the effects on the same parameter caused by the substitution with two methyl groups of the two hydrogen atoms of the hydroxymethyl group of compound B, namely [drawing 18] The compounds are obviously tested for their anti-Trichomonas in vivo properties.", "values": [
      {"smiles": "Cn1c(CO)cnc1[N+](=O)[O-]", "note": "[drawing 8]", "ΔTI (difference between Therapeutical Index of the 5-hydroxyalkyl and the corresponding 5-alkyl compound)": "+5.4"},
      {"smiles": "Cn1c(CCO)cnc1[N+](=O)[O-]", "note": "[drawing 10]", "ΔTI (difference between Therapeutical Index of the 5-hydroxyalkyl and the corresponding 5-alkyl compound)": "+5"},
      {"smiles": "CC(O)Cc1cnc([N+](=O)[O-])n1C", "note": "(stereo not shown) [drawing 12]", "ΔTI (difference between Therapeutical Index of the 5-hydroxyalkyl and the corresponding 5-alkyl compound)": "+17.8"},
      {"smiles": "CC(CO)c1cnc([N+](=O)[O-])n1C", "note": "(stereo not shown) [drawing 14]", "ΔTI (difference between Therapeutical Index of the 5-hydroxyalkyl and the corresponding 5-alkyl compound)": -63.2},
      {"smiles": "Cn1c(C(C)(C)O)cnc1[N+](=O)[O-]", "note": "[drawing 16]", "ΔTI (difference between Therapeutical Index of the 5-hydroxyalkyl and the corresponding 5-alkyl compound)": "+215"}
    ]},
    {"system": "Trichomonas vaginalis", "assay": "in vivo activity against experimental infection in mice caused by Trichomonas vaginalis (ED50, Therapeutical Index)", "conditions": "Table 3; K minus F, A minus B", "procedure": "as §1, §2, §3, §4, §5", "values": [
      {"smiles": "CC(C)c1cnc([N+](=O)[O-])n1C", "note": "[drawing 21]", "ΔTI (difference between Therapeutical Indexes of compounds K and A and compounds F and B)": 78.6},
      {"smiles": "Cn1c(C(C)(C)O)cnc1[N+](=O)[O-]", "note": "[drawing 23]", "ΔTI (difference between Therapeutical Indexes of compounds K and A and compounds F and B)": 292.2}
    ]}
  ]
}
